According to patent US8524896B2, “Chemical compounds” (Syngenta Crop Protection LLC, priority 2008, dated 2013):
Some entries share one result that the patent states for a list of compounds.

Tests used:
Format in all cases: in vivo, Myzus persicae (green peach aphid)
Myzus persicae [1] = test: B1: Myzus persicae, mixed population, feeding/residual contact activity, preventive (sunflower leaf discs); details: 200 ppm spray on sunflower leaf discs, mortality after 6 days
Myzus persicae [2] = test: B2: Myzus persicae, mixed population, systemic/feeding activity, curative (pea seedling roots); details: 24 ppm test solution, roots of infested pea seedlings, 6 days, systemic
Myzus persicae [3] = test: B3: Myzus persicae, mixed population, sachet test (feeding activity); details: 12.5 ppm in 30% sucrose solution, mortality 6 days after infestation

Structure (SMILES)	control of Myzus persicae (Myzus persicae [1])	control of Myzus persicae (Myzus persicae [2])	control of Myzus persicae (Myzus persicae [3])
N#Cc1c(OC(F)F)cccc1S(=O)(=O)N1CCSC1 [Compound P1.1, 2-Difluoromethoxy-6-(thiazolidine-3-sulfonyl)-benzonitrile]	at least 80%	at least 80%	at least 80%
N#Cc1c(F)cccc1S(=O)(=O)N1CC[S+]([O-])C1 (stereo not drawn) [Compound P1.6, 2-Fluoro-6-(1-oxo-1lambda*4*-thiazolidine-3-sulfonyl)-benzonitrile]	–	at least 80%	–
N#Cc1c(F)cccc1S(=O)(=O)N1CCSC1 [Compound P1.2, 2-Fluoro-6-(thiazolidine-3-sulfonyl)-benzonitrile]	at least 80%	at least 80%	–
